No constants are given. Whether binding was seen depends on the method and setting. Binding seen in cells or lysates may run through a third protein. Binding calls can cover weak binding; strength is not graded here. Sequences can lack the tags named with a protein.
B1: Flag-DGCR8 (protein, UniProt Q8WYQ5 1-773)
chain: METDESPSPLPCGPAGEAVMESRARPFQALPREQSPPPPLQTSSGAEVMDVGSGGDGQSELPAEDPFNFYGASLLSKGSFSKGRLLIDPNCSGHSPRTARHAPAVRKFSPDLKLLKDVKISVSFTESCRSKDRKVLYTGAERDVRAECGLLLSPVSGDVHACPFGGSVGDGVGIGGESADKKDEENELDQEKRVEYAVLDELEDFTDNLELDEEGAGGFTAKAIVQRDRVDEEALNFPYEDDFDNDVDALLEEGLCAPKKRRTEEKYGGDSDHPSDGETSVQPMMTKIKTVLKSRGRPPTEPLPDGWIMTFHNSGVPVYLHRESRVVTWSRPYFLGTGSIRKHDPPLSSIPCLHYKKMKDNEEREQSSDLTPSGDVSPVKPLSRSAELEFPLDEPDSMGADPGPPDEKDPLGAEAAPGALGQVKAKVEVCKDESVDLEEFRSYLEKRFDFEQVTVKKFRTWAERRQFNREMKRKQAESERPILPANQKLITLSVQDAPTKKEFVINPNGKSEVCILHEYMQRVLKVRPVYNFFECENPSEPFGASVTIDGVTYGSGTASSKKLAKNKAARATLEILIPDFVKQTSEEKPKDSEELEYFNHISIEDSRVYELTSKAGLLSPYQILHECLKRNHGMGDTSIKFEVVPGKNQKSEYVMACGKHTVRGWCKNKRVGKQLASQKILQLLHPHVKNWGSLLRMYGRESSKMVKQETSDKSVIELQQYAKKNKPNLHILSKLQEEMKRLAEEREETRKKPKMSIVASAQPGGEPLCTVDV
B2: Flag-TRBP (protein, UniProt Q15633 1-366)
chain: MSEEEQGSGTTTGCGLPSIEQMLAANPGKTPISLLQEYGTRIGKTPVYDLLKAEGQAHQPNFTFRVTVGDTSCTGQGPSKKAAKHKAAEVALKHLKGGSMLEPALEDSSSFSPLDSSLPEDIPVFTAAAAATPVPSVVLTRSPPMELQPPVSPQQSECNPVGALQELVVQKGWRLPEYTVTQESGPAHRKEFTMTCRVERFIEIGSGTSKKLAKRNAAAKMLLRVHTVPLDARDGNEVEPDDDHFSIGVGSRLDGLRNRGPGCTWDSLRNSVGEKILSLRSCSLGSLGALGPACCRVLSELSEEQAFHVSYLDIEELSLSGLCQCLVELSTQPATVCHGSATTREAARGEAARRALQYLKIMAGSK
B3: Flag-Drosha (enzyme, UniProt Q9NRR4 1-1374)
chain: MMQGNTCHRMSFHPGRGCPRGRGGHGARPSAPSFRPQNLRLLHPQQPPVQYQYEPPSAPSTTFSNSPAPNFLPPRPDFVPFPPPMPPSAQGPLPPCPIRPPFPNHQMRHPFPVPPCFPPMPPPMPCPNNPPVPGAPPGQGTFPFMMPPPSMPHPPPPPVMPQQVNYQYPPGYSHHNFPPPSFNSFQNNPSSFLPSANNSSSPHFRHLPPYPLPKAPSERRSPERLKHYDDHRHRDHSHGRGERHRSLDRRERGRSPDRRRQDSRYRSDYDRGRTPSRHRSYERSRERERERHRHRDNRRSPSLERSYKKEYKRSGRSYGLSVVPEPAGCTPELPGEIIKNTDSWAPPLEIVNHRSPSREKKRARWEEEKDRWSDNQSSGKDKNYTSIKEKEPEETMPDKNEEEEEELLKPVWIRCTHSENYYSSDPMDQVGDSTVVGTSRLRDLYDKFEEELGSRQEKAKAARPPWEPPKTKLDEDLESSSESECESDEDSTCSSSSDSEVFDVIAEIKRKKAHPDRLHDELWYNDPGQMNDGPLCKCSAKARRTGIRHSIYPGEEAIKPCRPMTNNAGRLFHYRITVSPPTNFLTDRPTVIEYDDHEYIFEGFSMFAHAPLTNIPLCKVIRFNIDYTIHFIEEMMPENFCVKGLELFSLFLFRDILELYDWNLKGPLFEDSPPCCPRFHFMPRFVRFLPDGGKEVLSMHQILLYLLRCSKALVPEEEIANMLQWEELEWQKYAEECKGMIVTNPGTKPSSVRIDQLDREQFNPDVITFPIIVHFGIRPAQLSYAGDPQYQKLWKSYVKLRHLLANSPKVKQTDKQKLAQREEALQKIRQKNTMRREVTVELSSQGFWKTGIRSDVCQHAMMLPVLTHHIRYHQCLMHLDKLIGYTFQDRCLLQLAMTHPSHHLNFGMNPDHARNSLSNCGIRQPKYGDRKVHHMHMRKKGINTLINIMSRLGQDDPTPSRINHNERLEFLGDAVVEFLTSVHLYYLFPSLEEGGLATYRTAIVQNQHLAMLAKKLELDRFMLYAHGPDLCRESDLRHAMANCFEALIGAVYLEGSLEEAKQLFGRLLFNDPDLREVWLNYPLHPLQLQEPNTDRQLIETSPVLQKLTEFEEAIGVIFTHVRLLARAFTLRTVGFNHLTLGHNQRMEFLGDSIMQLVATEYLFIHFPDHHEGHLTLLRSSLVNNRTQAKVAEELGMQEYAITNDKTKRPVALRTKTLADLLESFIAALYIDKDLEYVHTFMNVCFFPRLKEFILNQDWNDPKSQLQQCCLTLRTEGKEPDIPLYKTLQTVGPSHARTYTVAVYFKGERIGCGKGPSIQQAEMGAAMDALEKYNFPQMAHQKRFIERKYRQELKEMRWEREHQEREPDETEDIKK

What was measured:
[1] = molecular target: HA-NF90 (ILF3 isoform NF90) (human (ORF amplified from HEK293T cells)); assay: co-IP; HA-NF90 and Flag-tagged factor co-expressed in HEK293T with ectopic mir-144/451 (WT144) or loop mutant (144LM); lysis in 50 mM Tris-HCl pH 7.4, 150 mM NaCl, 1 mM EDTA, 1% Triton X-100; anti-HA magnetic beads, room temperature 2 h; Western blot
[2] = molecular target: HA-NF90 (ILF3 isoform NF90) (human (ORF amplified from HEK293T cells)); assay: co-IP; as the HA-NF90 co-IP, IP products treated with 100 U/ml RNase T1 and 40 ug/ml RNase A at 37 C for 20 min, then washed four times with TBS; Western blot

| Binder | binding [1] | binding [2] |
| --- | --- | --- |
| B1 | binds weakly |  |
| B2 | binds | binds |
| B3 | no binding |  |

Reference: article PMC9303283
